The record followed here is PMC6428865.

By UniProt entry, the sequences of proteins in these tests, tags left out.
UniProt P22147: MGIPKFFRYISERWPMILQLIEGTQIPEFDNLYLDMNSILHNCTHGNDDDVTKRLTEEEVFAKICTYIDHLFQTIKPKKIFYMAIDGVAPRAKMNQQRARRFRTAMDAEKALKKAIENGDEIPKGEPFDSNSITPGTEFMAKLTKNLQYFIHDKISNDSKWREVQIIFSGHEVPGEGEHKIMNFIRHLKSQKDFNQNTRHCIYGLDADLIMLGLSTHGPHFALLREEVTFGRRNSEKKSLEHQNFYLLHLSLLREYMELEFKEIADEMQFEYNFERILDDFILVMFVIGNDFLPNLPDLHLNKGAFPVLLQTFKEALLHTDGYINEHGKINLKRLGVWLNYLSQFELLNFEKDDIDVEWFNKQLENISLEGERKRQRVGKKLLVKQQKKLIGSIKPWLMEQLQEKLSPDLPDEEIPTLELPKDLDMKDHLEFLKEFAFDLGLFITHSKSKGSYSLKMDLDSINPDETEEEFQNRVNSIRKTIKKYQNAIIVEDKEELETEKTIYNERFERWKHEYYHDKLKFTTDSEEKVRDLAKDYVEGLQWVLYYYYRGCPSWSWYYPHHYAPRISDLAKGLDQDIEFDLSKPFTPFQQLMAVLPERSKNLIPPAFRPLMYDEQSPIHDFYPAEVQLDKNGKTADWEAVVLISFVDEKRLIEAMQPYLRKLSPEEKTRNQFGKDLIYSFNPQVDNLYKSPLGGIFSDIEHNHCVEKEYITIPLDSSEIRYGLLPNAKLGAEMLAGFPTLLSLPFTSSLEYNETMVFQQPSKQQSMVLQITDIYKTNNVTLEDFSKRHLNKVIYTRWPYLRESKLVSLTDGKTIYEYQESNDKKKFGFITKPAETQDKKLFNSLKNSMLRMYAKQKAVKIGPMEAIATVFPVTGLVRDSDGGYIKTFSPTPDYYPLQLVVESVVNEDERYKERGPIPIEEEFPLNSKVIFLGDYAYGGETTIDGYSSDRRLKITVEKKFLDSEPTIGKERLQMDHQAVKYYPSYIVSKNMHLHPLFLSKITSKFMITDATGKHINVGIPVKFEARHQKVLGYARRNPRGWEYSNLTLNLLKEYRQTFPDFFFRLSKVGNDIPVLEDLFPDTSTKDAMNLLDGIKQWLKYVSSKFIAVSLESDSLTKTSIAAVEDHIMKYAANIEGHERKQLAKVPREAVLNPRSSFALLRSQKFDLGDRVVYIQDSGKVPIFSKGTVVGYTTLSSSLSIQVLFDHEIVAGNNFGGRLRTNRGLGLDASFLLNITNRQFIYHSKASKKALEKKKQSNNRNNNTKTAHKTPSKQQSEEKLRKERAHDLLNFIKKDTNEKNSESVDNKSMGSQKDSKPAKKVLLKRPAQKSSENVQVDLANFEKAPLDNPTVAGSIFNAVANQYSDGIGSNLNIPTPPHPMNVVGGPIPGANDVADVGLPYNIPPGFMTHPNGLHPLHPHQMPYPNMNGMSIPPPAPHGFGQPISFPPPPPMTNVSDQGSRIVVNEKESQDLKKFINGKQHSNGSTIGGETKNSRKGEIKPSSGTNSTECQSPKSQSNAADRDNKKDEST

This test deals with T1, eIF4A-GFP (yeast (genomic fusion in the yeast strain)) (UniProt P10081).
T1 sequence: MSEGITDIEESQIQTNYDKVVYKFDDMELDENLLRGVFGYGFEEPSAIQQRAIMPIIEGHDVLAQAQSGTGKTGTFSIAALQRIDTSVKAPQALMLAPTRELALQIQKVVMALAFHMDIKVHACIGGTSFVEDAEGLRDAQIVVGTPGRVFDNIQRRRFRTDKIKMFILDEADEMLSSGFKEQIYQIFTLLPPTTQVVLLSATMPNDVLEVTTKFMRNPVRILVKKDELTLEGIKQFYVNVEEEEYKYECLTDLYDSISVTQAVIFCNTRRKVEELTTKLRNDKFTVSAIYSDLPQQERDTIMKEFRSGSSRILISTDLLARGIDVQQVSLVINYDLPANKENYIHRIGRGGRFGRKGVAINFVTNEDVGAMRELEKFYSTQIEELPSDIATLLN
The test is described as follows: co-IP; GFP-trap_A beads take the genomic GFP fusion from yeast extracts (3 mg total protein) treated or not treated with RNase; 1 h at 4 °C; lysis buffer 50 mM Tris-HCl pH 7.5, 150 mM NaCl, 0.1% NP-40, 1 mM EDTA; washes with 10 mM Tris-HCl pH 7.5, 200 mM NaCl, 0.5 mM EDTA; FLAG-tagged proteins seen by western blot. A general note: In western blotting, separated proteins are transferred to a membrane and probed.

No constants are given. Whether binding was seen depends on the method and setting. Binding seen in cells or lysates may run through a third protein. Tags and fused reporters may be left off the sequences shown.

Consider “Xrn1-FLAG (from UniProt P22147 1-1528) (enzyme)”, for which the binding result was “no binding”.
